The supplement of paper PMC10849652
The list shows a part of the results.

The chains behind the UniProt entries cited, without tags or fusion partners. Where a name states a change or a piece, a line headed by the entry shows the natural chain unless it says otherwise.
UniProt Q96CW1: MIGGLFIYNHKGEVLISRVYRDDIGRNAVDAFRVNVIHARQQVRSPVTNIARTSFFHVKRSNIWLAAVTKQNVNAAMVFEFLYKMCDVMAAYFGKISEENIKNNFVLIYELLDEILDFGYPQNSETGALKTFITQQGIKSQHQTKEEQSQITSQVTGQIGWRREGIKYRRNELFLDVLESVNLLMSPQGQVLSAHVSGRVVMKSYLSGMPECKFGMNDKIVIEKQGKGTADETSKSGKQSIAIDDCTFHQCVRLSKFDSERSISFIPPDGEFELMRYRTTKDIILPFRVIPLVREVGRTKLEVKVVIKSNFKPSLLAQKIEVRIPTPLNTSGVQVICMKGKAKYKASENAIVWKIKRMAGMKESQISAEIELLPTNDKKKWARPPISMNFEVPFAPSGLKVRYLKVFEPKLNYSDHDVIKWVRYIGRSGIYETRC
UniProt Q8IWZ3: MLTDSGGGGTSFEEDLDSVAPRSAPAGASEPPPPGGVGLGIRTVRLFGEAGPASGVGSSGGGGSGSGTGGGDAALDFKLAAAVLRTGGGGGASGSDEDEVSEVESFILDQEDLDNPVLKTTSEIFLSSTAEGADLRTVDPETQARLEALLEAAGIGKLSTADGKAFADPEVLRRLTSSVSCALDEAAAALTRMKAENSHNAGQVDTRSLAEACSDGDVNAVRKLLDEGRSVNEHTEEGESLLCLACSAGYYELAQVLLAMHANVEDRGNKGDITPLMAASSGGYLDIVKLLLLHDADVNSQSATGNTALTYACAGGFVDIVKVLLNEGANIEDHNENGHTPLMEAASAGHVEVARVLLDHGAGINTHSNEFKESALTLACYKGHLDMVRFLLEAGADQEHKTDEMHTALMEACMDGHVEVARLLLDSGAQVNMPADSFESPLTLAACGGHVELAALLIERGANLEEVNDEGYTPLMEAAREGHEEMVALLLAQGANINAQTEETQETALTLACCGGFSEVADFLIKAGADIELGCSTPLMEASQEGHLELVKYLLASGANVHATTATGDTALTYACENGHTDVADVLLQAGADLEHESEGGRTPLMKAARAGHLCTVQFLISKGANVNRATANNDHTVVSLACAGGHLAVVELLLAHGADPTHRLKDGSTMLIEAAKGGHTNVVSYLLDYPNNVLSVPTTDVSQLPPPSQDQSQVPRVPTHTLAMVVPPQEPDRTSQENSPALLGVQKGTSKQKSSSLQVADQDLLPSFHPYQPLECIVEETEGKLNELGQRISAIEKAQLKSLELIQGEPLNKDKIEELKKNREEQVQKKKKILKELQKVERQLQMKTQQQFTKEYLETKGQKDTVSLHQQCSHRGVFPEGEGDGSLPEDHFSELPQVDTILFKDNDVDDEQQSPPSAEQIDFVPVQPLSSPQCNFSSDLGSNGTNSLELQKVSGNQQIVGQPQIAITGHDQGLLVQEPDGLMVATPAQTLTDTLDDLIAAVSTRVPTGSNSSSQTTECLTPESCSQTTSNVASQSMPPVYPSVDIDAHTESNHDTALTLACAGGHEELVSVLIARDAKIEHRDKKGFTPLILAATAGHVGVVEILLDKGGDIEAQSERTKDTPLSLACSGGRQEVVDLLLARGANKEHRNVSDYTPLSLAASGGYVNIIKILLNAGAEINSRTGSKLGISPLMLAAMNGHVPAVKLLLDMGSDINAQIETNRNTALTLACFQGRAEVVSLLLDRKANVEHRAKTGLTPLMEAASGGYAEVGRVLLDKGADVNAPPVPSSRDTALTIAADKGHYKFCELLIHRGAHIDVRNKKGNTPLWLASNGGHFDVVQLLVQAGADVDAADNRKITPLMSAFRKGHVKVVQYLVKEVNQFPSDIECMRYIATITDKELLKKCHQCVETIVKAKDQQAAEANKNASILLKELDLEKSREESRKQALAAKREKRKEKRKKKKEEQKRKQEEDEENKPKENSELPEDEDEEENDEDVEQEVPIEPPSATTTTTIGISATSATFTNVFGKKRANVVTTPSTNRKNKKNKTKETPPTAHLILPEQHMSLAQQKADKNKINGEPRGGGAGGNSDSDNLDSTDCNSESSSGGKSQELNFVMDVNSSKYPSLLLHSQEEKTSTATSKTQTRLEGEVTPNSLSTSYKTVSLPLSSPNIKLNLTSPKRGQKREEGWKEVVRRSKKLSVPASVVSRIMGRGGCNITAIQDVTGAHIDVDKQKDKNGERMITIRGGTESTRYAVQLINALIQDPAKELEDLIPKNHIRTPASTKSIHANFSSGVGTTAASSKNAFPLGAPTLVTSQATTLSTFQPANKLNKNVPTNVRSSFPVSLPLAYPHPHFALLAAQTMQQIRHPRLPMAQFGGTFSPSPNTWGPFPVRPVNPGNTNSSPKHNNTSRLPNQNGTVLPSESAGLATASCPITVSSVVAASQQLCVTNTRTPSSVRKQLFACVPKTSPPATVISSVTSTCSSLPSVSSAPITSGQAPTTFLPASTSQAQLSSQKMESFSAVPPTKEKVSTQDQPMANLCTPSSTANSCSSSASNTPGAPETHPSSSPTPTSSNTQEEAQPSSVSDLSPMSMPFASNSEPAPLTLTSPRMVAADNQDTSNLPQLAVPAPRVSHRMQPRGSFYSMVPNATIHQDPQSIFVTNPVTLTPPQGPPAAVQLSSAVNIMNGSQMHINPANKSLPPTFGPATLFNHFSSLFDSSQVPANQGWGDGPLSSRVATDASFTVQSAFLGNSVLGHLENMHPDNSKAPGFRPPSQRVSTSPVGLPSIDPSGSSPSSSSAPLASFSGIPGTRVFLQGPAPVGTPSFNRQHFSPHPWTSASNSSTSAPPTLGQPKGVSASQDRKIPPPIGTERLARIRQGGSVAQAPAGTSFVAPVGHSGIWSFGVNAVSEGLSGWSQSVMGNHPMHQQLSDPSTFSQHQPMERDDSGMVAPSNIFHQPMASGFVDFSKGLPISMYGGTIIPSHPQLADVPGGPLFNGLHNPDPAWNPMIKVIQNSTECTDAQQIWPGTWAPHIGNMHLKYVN
UniProt O14617: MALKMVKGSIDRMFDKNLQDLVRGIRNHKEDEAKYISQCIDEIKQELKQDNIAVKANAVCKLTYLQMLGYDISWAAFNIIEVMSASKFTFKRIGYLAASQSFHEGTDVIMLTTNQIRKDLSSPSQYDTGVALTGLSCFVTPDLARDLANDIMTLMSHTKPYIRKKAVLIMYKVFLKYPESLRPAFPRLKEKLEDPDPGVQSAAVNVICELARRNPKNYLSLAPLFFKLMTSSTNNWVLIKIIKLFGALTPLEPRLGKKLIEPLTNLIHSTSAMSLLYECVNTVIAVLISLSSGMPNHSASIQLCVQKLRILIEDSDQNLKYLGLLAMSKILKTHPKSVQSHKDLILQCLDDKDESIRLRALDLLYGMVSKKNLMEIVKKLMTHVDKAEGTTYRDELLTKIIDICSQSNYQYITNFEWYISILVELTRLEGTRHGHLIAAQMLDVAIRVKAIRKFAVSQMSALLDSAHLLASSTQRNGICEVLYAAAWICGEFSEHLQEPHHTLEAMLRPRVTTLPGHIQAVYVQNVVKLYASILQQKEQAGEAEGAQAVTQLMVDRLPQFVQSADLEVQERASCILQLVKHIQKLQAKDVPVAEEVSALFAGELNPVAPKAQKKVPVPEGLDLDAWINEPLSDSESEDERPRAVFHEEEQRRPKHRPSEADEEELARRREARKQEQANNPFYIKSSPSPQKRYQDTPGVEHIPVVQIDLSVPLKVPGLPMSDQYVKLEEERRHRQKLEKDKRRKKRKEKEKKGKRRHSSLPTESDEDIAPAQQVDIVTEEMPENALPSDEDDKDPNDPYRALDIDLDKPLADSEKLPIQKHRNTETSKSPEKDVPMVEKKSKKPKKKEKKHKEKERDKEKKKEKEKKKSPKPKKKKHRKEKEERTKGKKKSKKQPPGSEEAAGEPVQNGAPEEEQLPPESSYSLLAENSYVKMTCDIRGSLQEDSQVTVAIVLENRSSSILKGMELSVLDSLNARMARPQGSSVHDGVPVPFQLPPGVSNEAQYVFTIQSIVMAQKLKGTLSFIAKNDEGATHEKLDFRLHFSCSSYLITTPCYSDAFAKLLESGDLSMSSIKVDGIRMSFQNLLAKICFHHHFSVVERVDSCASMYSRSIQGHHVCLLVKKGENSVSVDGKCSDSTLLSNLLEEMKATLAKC
UniProt P53367: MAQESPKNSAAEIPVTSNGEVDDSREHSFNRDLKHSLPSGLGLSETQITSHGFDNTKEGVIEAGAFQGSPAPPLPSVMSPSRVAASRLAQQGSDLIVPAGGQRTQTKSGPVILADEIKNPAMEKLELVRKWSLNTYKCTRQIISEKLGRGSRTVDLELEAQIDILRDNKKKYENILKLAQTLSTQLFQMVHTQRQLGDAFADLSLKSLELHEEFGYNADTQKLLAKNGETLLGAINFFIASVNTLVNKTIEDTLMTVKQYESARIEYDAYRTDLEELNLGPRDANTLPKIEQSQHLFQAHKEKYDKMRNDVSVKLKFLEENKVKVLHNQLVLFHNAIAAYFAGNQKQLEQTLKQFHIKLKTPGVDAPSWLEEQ
UniProt P56377: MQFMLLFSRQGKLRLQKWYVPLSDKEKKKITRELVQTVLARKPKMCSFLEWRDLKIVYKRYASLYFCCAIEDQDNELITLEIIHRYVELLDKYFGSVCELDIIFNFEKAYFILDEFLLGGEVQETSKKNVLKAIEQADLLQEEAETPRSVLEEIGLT
UniProt P61966: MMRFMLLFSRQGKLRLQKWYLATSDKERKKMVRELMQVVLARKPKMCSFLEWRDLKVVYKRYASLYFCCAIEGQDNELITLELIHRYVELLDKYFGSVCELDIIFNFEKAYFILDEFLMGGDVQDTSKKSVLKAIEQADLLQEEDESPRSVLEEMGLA
UniProt Q9P2R3: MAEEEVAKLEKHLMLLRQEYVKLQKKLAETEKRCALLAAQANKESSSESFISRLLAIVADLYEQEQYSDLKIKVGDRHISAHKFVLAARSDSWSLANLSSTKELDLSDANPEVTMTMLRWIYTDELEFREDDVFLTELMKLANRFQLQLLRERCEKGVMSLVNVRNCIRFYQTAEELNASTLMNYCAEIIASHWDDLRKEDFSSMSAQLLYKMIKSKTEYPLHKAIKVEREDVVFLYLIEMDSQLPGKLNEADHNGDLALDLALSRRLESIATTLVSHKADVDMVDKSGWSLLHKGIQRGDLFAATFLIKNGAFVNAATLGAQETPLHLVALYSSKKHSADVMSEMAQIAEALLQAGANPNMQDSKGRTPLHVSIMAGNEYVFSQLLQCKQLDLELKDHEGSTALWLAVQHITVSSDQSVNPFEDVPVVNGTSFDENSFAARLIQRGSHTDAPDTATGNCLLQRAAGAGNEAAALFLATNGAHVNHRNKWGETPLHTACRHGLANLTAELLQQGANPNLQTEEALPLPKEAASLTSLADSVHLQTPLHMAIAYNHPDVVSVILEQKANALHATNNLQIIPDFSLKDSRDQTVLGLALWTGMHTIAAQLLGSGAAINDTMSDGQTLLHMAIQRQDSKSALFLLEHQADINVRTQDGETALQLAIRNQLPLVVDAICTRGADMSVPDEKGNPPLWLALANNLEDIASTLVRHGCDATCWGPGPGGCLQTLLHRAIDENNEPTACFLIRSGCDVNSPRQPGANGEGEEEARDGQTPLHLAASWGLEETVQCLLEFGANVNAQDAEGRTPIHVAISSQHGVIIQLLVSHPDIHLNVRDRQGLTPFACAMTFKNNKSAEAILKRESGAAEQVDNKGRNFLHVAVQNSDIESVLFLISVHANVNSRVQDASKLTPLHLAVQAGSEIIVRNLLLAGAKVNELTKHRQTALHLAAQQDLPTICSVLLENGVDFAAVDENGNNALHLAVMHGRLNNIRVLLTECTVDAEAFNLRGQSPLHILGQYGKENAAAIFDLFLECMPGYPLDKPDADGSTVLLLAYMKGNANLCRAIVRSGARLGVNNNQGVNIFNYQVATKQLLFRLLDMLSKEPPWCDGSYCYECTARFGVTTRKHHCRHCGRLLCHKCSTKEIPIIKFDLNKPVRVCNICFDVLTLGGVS
UniProt Q9NP61: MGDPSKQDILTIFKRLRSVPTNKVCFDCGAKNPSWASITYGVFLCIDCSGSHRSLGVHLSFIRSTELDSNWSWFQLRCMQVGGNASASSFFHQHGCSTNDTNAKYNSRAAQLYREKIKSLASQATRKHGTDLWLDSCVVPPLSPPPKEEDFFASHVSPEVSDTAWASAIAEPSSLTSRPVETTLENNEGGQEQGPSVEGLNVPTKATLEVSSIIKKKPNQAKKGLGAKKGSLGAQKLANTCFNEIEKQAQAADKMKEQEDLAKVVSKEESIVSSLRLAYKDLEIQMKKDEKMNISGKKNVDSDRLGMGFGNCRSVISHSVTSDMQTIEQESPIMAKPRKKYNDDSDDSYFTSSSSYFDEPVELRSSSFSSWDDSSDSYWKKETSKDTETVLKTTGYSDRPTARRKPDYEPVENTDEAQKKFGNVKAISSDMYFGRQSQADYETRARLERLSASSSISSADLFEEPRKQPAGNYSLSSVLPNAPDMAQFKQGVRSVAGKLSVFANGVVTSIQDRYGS

Experiments:
Assay in all cases: log2 fold change, soluble protein after heating vs DMSO (PISA); higher = thermal stabilisation; K562 cells, 10 uM, 30 min; active = over 0.2 and 3.5 SD of the protein, either way, in both replicates (recomputed)
bafetinib = compound: Cc1ccc(NC(=O)c2ccc(CN3CC[C@H](N(C)C)C3)c(C(F)(F)F)c2)cc1Nc1nccc(-c2cncnc2)n1 [bafetinib]
Outline: (§1)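 Soluble protein was defined as the supernatant after 21,000xg for 90 min. It came from K562 cells at 2×10^6 cells/mL given 10 μM compound for 30 min, heated in aliquots for 3 min across 48°C-58°C, pooled, and extracted in PBS with 0.5% NP-40 at 4°C, and was quantified by TMTpro 16plex LC-MS/MS with equalised channel sums. Thermal stability against control samples, from duplicates, is reported as log2 fold change.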

nilotinib = compound: Cc1cn(-c2cc(NC(=O)c3ccc(C)c(Nc4nccc(-c5cccnc5)n4)c3)cc(C(F)(F)F)c2)cn1 [nilotinib]
Outline: as §1

[1] = compound: Cc1nc(Nc2n[nH]c3c2CN(C(=O)N[C@H](CN(C)C)c2ccccc2)C3(C)C)c2sccc2n1
Outline: as §1

dasatinib = compound: Cc1nc(Nc2ncc(C(=O)Nc3c(C)cccc3Cl)s2)cc(N2CCN(CCO)CC2)n1 [dasatinib]
Outline: as §1

[2] = compound: Cc1ncc(-c2ccnc(Nc3ccc(S(C)(=O)=O)cc3)n2)n1C(C)C
Outline: as §1

[3] = compound: Cn1cc(-c2ccc3c(c2)CCN3C(=O)Cc2cccc(C(F)(F)F)c2)c2c(N)ncnc21
Outline: as §1

[4] = compound: Cn1cc(-c2ccc3nnc(C(F)(F)c4ccc5ncccc5c4)n3n2)cn1
Outline: as §1

tipifarnib = compound: Cn1cncc1[C@@](N)(c1ccc(Cl)cc1)c1ccc2c(c1)c(-c1cccc(Cl)c1)cc(=O)n2C [tipifarnib]
Outline: as §1

mubritinib = compound: FC(F)(F)c1ccc(/C=C/c2nc(COc3ccc(CCCCn4ccnn4)cc3)co2)cc1 [mubritinib]
Outline: as §1

[5] = compound: Cc1cccc(CC(=O)N2CCc3c2ccc(-c2cn(C)c4ncnc(N)c24)c3F)n1
Outline: as §1

| Target | log2 fold change (bafetinib) | log2 fold change (nilotinib) | log2 fold change [1] | log2 fold change (dasatinib) | log2 fold change [2] | log2 fold change [3] | log2 fold change [4] | log2 fold change (tipifarnib) | log2 fold change (mubritinib) | log2 fold change [5] |
| --- | --- | --- | --- | --- | --- | --- | --- | --- | --- | --- |
| ARHGAP4 isoform 2 (UniProt P98171) | active: 0.709 | inactive: -0.137 | inactive: 0.436 | inactive: -0.097 | inactive: -0.174 | inactive: -0.06 | inactive: -0.046 | inactive: 0.161 | inactive: -0.164 | – |
| AP2M1 (UniProt Q96CW1) | inactive: 0.042 | inactive: 0.012 | inactive: 0.031 | inactive: 0.048 | inactive: -0.02 | inactive: -0.013 | inactive: -0.004 | inactive: 0.02 | inactive: -0.035 | inactive: -0.012 |
| ANXA7 (UniProt P20073) | inactive: -0.022 | inactive: -0.028 | inactive: 0 | inactive: -0.052 | inactive: -0.012 | inactive: 0.041 | inactive: -0.051 | inactive: -0.016 | inactive: 0.009 | inactive: 0.021 |
| APOH (UniProt P02749) | active: -1.07 | inactive: 0 | inactive: 0.031 | inactive: -0.281 | inactive: 0.392 | inactive: 0.145 | inactive: -0.167 | inactive: 0.085 | inactive: -0.346 | inactive: 0.083 |
| APOA4 (UniProt P06727) | inactive: -0.062 | inactive: 0.173 | inactive: -0.046 | – | inactive: 0.233 | – | inactive: -0.1 | – | inactive: 0 | – |
| AP1G1 isoform 2 (UniProt O43747) | inactive: 0.001 | inactive: -0.034 | inactive: -0.023 | inactive: -0.102 | inactive: 0.024 | inactive: 0.004 | inactive: -0.021 | inactive: -0.082 | inactive: 0.044 | inactive: 0.047 |
| ARFGAP2 (UniProt Q8N6H7) | inactive: -0.006 | inactive: -0.045 | inactive: -0.063 | inactive: -0.096 | inactive: 0.035 | inactive: -0.024 | inactive: -0.024 | inactive: -0.059 | inactive: 0.041 | inactive: -0.008 |
| AP2M1 (UniProt C9JTK4) | inactive: -0.174 | inactive: -0.02 | inactive: 0.212 | inactive: 0.029 | inactive: -0.161 | inactive: -0.17 | – | – | inactive: 0.08 | – |
| ANKHD1 isoform 6 (UniProt Q8IWZ3) | inactive: 0.039 | inactive: -0.092 | inactive: -0.02 | inactive: -0.058 | inactive: -0.023 | inactive: -0.064 | inactive: -0.067 | inactive: -0.131 | inactive: -0.039 | inactive: 0.08 |
| ANAPC2 (UniProt Q9UJX6) | inactive: -0.048 | inactive: -0.004 | inactive: -0.053 | inactive: -0.04 | inactive: 0.003 | inactive: -0.005 | inactive: -0.036 | inactive: -0.005 | inactive: 0.049 | inactive: 0.024 |
| APOL2 (UniProt J3KQL8) | inactive: 0.131 | inactive: 0.009 | inactive: -0.082 | inactive: 0.059 | inactive: 0 | inactive: 0.016 | – | inactive: 0.295 | inactive: 0.143 | inactive: 0.041 |
| AP3D1 isoform 5 (UniProt O14617) | inactive: 0.018 | inactive: -0.085 | inactive: -0.03 | inactive: -0.091 | inactive: 0.013 | inactive: -0.002 | inactive: -0.028 | inactive: -0.031 | inactive: 0.023 | inactive: 0.046 |
| AP4S1 (UniProt Q9Y587) | inactive: 0.068 | inactive: -0.015 | inactive: -0.016 | inactive: -0.036 | inactive: 0.072 | inactive: -0.103 | – | inactive: 0.076 | inactive: -0.013 | – |
| ANKRD17 (UniProt O75179) | inactive: -0.056 | inactive: 0.015 | inactive: -0.026 | inactive: 0 | inactive: -0.015 | inactive: -0.036 | inactive: -0.088 | inactive: 0.001 | inactive: -0.045 | inactive: 0.093 |
| ARFIP1 (UniProt P53367) | inactive: -0.198 | inactive: -0.177 | inactive: -0.148 | inactive: -0.113 | inactive: 0.05 | inactive: 0.069 | active: 0.461 | inactive: -0.115 | inactive: -0.054 | inactive: 0.077 |
| AP1S2 (UniProt P56377) | inactive: 0.102 | inactive: -0.092 | inactive: -0.016 | inactive: -0.133 | inactive: 0.014 | inactive: 0.1 | – | inactive: 0.008 | inactive: 0.015 | inactive: 0.103 |

| Target | log2 fold change (bafetinib) | log2 fold change (nilotinib) | log2 fold change [1] | log2 fold change (dasatinib) | log2 fold change [2] | log2 fold change [3] | log2 fold change [4] | log2 fold change (tipifarnib) | log2 fold change (mubritinib) | log2 fold change [5] |
| --- | --- | --- | --- | --- | --- | --- | --- | --- | --- | --- |
| ANKRD49 (UniProt Q8WVL7) | inactive: -0.001 | inactive: 0.01 | inactive: -0.027 | inactive: 0.04 | inactive: 0.021 | inactive: 0.035 | inactive: -0.017 | inactive: -0.015 | inactive: 0.106 | inactive: 0.125 |
| ARHGAP21 (UniProt Q5T5U3) | inactive: 0.037 | inactive: -0.133 | inactive: 0.198 | inactive: 0.192 | inactive: 0.106 | inactive: -0.009 | inactive: 0.073 | – | inactive: -0.193 | inactive: -0.103 |
| APOC3 (UniProt P02656) | inactive: 0.153 | inactive: 0.108 | inactive: 0.183 | inactive: 0.119 | inactive: -0.042 | inactive: 0.031 | inactive: 0 | inactive: 0.117 | inactive: 0.066 | – |
| APH1A (UniProt Q96BI3) | inactive: 0.132 | inactive: -0.037 | inactive: -0.04 | inactive: -0.039 | inactive: 0.028 | inactive: 0.036 | – | inactive: -0.06 | inactive: 0.05 | inactive: -0.06 |
| ANKMY2 (UniProt Q8IV38) | inactive: -0.017 | inactive: -0.03 | inactive: 0.012 | inactive: -0.071 | inactive: 0.006 | inactive: -0.005 | inactive: -0.021 | inactive: -0.064 | inactive: -0.017 | inactive: 0.084 |
| AP1S1 (UniProt P61966) | inactive: -0.023 | inactive: -0.067 | inactive: -0.007 | inactive: -0.059 | inactive: -0.014 | inactive: -0.073 | inactive: -0.016 | inactive: -0.072 | inactive: -0.008 | inactive: 0.058 |
| ARFIP1 isoform 2 (UniProt P53367) | inactive: -0.281 | inactive: -0.147 | inactive: -0.049 | inactive: -0.316 | inactive: -0.013 | – | – | inactive: -0.024 | inactive: -0.004 | inactive: -0.195 |
| APOL1 isoform 2 (UniProt O14791) | inactive: 0.006 | inactive: 0.019 | inactive: -0.14 | – | inactive: 0.103 | inactive: -0.071 | – | – | – | – |
| APIP (UniProt Q96GX9) | inactive: 0.052 | inactive: 0.051 | inactive: 0.023 | inactive: 0.019 | inactive: -0.014 | inactive: 0.038 | inactive: -0.038 | inactive: 0.003 | inactive: 0.031 | inactive: -0.05 |
| APOBEC3G (UniProt Q9HC16) | inactive: -0.016 | inactive: 0.028 | inactive: 0.079 | inactive: 0.075 | inactive: 0.028 | – | inactive: -0.042 | inactive: -0.012 | inactive: 0.03 | – |
| ANKFY1 isoform 4 (UniProt Q9P2R3) | inactive: 0 | inactive: 0.088 | inactive: -0.313 | – | inactive: 0.027 | inactive: -0.01 | inactive: -0.011 | inactive: 0.014 | inactive: -0.057 | inactive: 0.107 |
| ARFGAP3 (UniProt Q9NP61) | inactive: -0.024 | inactive: -0.035 | inactive: -0.021 | inactive: -0.065 | inactive: 0.002 | inactive: 0.015 | inactive: -0.011 | inactive: 0.019 | inactive: 0.002 | inactive: 0.031 |
| APOB (UniProt P04114) | inactive: -0.316 | inactive: -0.132 | inactive: 0.013 | inactive: -0.213 | inactive: 0.051 | inactive: 0.071 | inactive: -0.021 | inactive: -0.203 | inactive: 0.011 | inactive: 0.032 |
| APOBEC3F (UniProt Q8IUX4) | inactive: -0.237 | – | – | inactive: -0.055 | – | inactive: -0.276 | inactive: -0.041 | inactive: 0.208 | – | – |
| AQR (UniProt O60306) | – | – | – | inactive: -0.049 | – | inactive: -0.162 | inactive: -0.096 | inactive: 0.023 | inactive: 0.033 | inactive: -0.047 |

Only log2 fold change [3], log2 fold change (mubritinib) and log2 fold change [5], for some of the entries so far:
Target,log2 fold change [3],log2 fold change (mubritinib),log2 fold change [5]
ARHGAP21 (UniProt Q5T5U3),inactive: -0.009,inactive: -0.193,inactive: -0.103
APOC3 (UniProt P02656),inactive: 0.031,inactive: 0.066,–
